Reference: paper PMC6220262
No constants are given. Whether binding was seen depends on the method and setting. Binding seen in cells or lysates may run through a third protein. Some results given as binding are weak or reduced against the parent protein; the word gives no strength. For some of these results: Sequences can lack the tags named with a protein. Values belong to the molecule of their own block, whether it stands above or below them.

By UniProt entry, the sequences of proteins in these tests, tags left out.
UniProt P41208: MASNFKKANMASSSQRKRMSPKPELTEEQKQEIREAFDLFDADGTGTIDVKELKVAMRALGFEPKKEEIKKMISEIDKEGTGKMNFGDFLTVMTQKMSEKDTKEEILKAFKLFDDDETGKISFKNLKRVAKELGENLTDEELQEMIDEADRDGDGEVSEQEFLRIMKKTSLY
UniProt P53350: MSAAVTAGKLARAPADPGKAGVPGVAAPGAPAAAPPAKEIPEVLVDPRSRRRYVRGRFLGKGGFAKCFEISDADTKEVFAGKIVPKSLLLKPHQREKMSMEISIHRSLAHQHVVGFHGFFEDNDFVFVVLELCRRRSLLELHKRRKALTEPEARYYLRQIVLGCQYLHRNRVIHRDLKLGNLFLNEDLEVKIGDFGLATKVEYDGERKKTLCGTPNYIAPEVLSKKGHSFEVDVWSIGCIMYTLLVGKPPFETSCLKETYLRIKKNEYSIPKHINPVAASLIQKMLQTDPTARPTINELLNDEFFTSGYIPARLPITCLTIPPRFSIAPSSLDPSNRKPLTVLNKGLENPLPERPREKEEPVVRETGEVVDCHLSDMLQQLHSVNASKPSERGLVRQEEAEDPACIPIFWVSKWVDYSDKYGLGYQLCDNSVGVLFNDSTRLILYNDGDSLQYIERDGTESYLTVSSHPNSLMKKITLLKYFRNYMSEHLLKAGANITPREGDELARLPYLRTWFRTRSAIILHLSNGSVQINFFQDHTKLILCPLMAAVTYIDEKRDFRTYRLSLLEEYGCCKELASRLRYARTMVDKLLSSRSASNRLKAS

Tests used:
[1] = target: T1, human CDC20B (cell division cycle 20B), GFP fusion protein (human) (UniProt Q86Y33); assay: co-IP; asynchronous HEK cells transfected with the constructs; lysis in 0.025 M Tris, 0.15 M NaCl, 0.001 M EDTA, 1% NP-40, 5% glycerol, pH 7.4; Pierce co-immunoprecipitation kit, columns coupled with anti-GFP or anti-c-myc (9E10), overnight at 4 °C; immunoblot with anti-CDC20B or anti-c-myc; reciprocal
T1 sequence: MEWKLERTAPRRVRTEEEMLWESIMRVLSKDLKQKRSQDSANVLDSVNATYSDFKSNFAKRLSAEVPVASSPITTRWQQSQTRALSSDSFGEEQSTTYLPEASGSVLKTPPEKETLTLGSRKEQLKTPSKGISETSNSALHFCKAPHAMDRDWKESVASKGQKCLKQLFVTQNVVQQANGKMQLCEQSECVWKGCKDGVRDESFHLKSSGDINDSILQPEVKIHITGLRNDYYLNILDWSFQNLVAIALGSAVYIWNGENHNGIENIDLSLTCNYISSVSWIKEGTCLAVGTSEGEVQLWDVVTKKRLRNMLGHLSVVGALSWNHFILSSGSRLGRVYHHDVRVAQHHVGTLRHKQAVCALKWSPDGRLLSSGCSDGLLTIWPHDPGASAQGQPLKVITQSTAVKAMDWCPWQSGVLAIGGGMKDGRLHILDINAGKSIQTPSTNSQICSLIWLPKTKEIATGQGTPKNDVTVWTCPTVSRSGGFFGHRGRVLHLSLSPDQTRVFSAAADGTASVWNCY

[2] = target: Centrin2 (human (endogenous in HAECs)) (UniProt P41208); assay: proximity ligation; fully differentiated HAECs dissociated and cytocentrifuged onto slides, fixed (methanol for Centrin2; 4% paraformaldehyde and Triton X-100 for acetylated α-tubulin); primary antibodies 2 h at room temperature; Duolink Red kit

- binding [1]: binds
Molecule: human PLK1, myc-tagged (from UniProt P53350 1-603) (enzyme)

- binding [1]: binds
B2: human SPAG5 (Astrin), myc-tagged (protein, UniProt Q96R06 1-1193)
chain: MWRVKKLSLSLSPSPQTGKPSMRTPLRELTLQPGALTNSGKRSPACSSLTPSLCKLGLQEGSNNSSPVDFVNNKRTDLSSEHFSHSSKWLETCQHESDEQPLDPIPQISSTPKTSEEAVDPLGNYMVKTIVLVPSPLGQQQDMIFEARLDTMAETNSISLNGPLRTDDLVREEVAPCMGDRFSEVAAVSEKPIFQESPSHLLEESPPNPCSEQLHCSKESLSSRTEAVREDLVPSESNAFLPSSVLWLSPSTALAADFRVNHVDPEEEIVEHGAMEEREMRFPTHPKESETEDQALVSSVEDILSTCLTPNLVEMESQEAPGPAVEDVGRILGSDTESWMSPLAWLEKGVNTSVMLENLRQSLSLPSMLRDAAIGTTPFSTCSVGTWFTPSAPQEKSTNTSQTGLVGTKHSTSETEQLLCGRPPDLTALSRHDLEDNLLSSLVILEVLSRQLRDWKSQLAVPHPETQDSSTQTDTSHSGITNKLQHLKESHEMGQALQQARNVMQSWVLISKELISLLHLSLLHLEEDKTTVSQESRRAETLVCCCFDLLKKLRAKLQSLKAEREEARHREEMALRGKDAAEIVLEAFCAHASQRISQLEQDLASMREFRGLLKDAQTQLVGLHAKQEELVQQTVSLTSTLQQDWRSMQLDYTTWTALLSRSRQLTEKLTVKSQQALQERDVAIEEKQEVSRVLEQVSAQLEECKGQTEQLELENSRLATDLRAQLQILANMDSQLKELQSQHTHCAQDLAMKDELLCQLTQSNEEQAAQWQKEEMALKHMQAELQQQQAVLAKEVRDLKETLEFADQENQVAHLELGQVECQLKTTLEVLRERSLQCENLKDTVENLTAKLASTIADNQEQDLEKTRQYSQKLGLLTEQLQSLTLFLQTKLKEKTEQETLLLSTACPPTQEHPLPNDRTFLGSILTAVADEEPESTPVPLLGSDKSAFTRVASMVSLQPAETPGMEESLAEMSIMTTELQSLCSLLQESKEEAIRTLQRKICELQARLQAQEEQHQEVQKAKEADIEKLNQALCLRYKNEKELQEVIQQQNEKILEQIDKSGELISLREEVTHLTRSLRRAETETKVLQEALAGQLDSNCQPMATNWIQEKVWLSQEVDKLRVMFLEMKNEKEKLMIKFQSHRNILEENLRRSDKELEKLDDIVQHIYKTLLSIPEVVRGCKELQGLLEFLS

The remaining lines, values behind:

B1: human DEUP1 (Deuterosome assembly protein 1), myc-tagged (protein, UniProt Q05D60 1-604)
chain: MENQAHNTMGTSPCEAELQELMEQIDIMVSNKKMDWERKMRALETRLDLRDQELANAQTCLDQKGQEVGLLRQKLDSLEKCNLAMTQNYEGQLQSLKAQFSKLTNNFEKLRLHQMKQNKVPRKELPHLKEEIPFELSNLNQKLEEFRAKSREWDKQEILYQTHLISLDAQQKLLSEKCNQFQKQAQSYQTQLNGKKQCLEDSSSEIPRLICDPDPNCEINERDEFIIEKLKSAVNEIALSRNKLQDENQKLLQELKMYQRQCQAMEAGLSEVKSELQSRDDLLRIIEMERLQLHRELLKIGECQNAQGNKTRLESSYLPSIKEPERKIKELFSVMQDQPNHEKELNKIRSQLQQVEEYHNSEQERMRNEISDLTEELHQKEITIATVTKKAALLEKQLKMELEIKEKMLAKQKVSDMKYKAVRTENTHLKGMMGDLDPGEYMSMDFTNREQSRHTSINKLQYENERLRNDLAKLHVNGKSTWTNQNTYEETGRYAYQSQIKVEQNEERLSHDCEPNRSTMPPLPPSTFQAKEMTSPLVSDDDVFPLSPPDMSFPASLAAQHFLLEEEKRAKELEKLLNTHIDELQRHTEFTLNKYSKLKQNRHI
- binding [1]: binds

B3: CDC20B, endogenous in human airway epithelial cells (protein, UniProt Q86Y33 1-519)
chain: T1 sequence
- binding [2]: binds
